PubChem BioAssay AID1259308 – NCATS – 2017
Screen: 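Genes whose loss raises luciferase production in HEK293 cells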 (primary screen). System: human HEK293 embryonic kidney cells stably expressing firefly luciferase (HEK-CMV-Luc2-Hygro). Knock-down reagent: single siRNA against human genes, 0.8 pmol siRNA per well. Duration: 72 h. Measured: 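Luciferase light (ONE-Glo) measured on one replicate plate set and viability (CellTiter-Glo) on the other, scaled to a negative control siRNA, with robust z-scores and luciferase per cell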. Direction: total luciferase, z-score: higher = more reporter protein produced. Rule for the call: 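Active when the median/MAD z-score for overall luciferase is greater than 3; a gene was taken forward for validation with new siRNAs if at least two of its three siRNAs passed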. Meaning of the calls: active = raised luciferase; inactive = no rise.
The whole screen tested about 59,000 reagents; below is an unselected part. About 1,510 of them (2.6%) were called active. 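Calls use total luciferase alone and ignore viability, so some active siRNAs may act by altering cell number.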 Reagents against one gene are numbered here. Not all columns of the deposit are shown.

Depletion of NLE1 #1 resulted in: total luciferase, z-score -0.0828; inactive.
NLE1 #2 showed total luciferase, z-score 1.14; inactive.
For NLE1 #3, the entry reads total luciferase, z-score -0.823; inactive.
For GPR161 #1, the values are total luciferase, z-score -0.252; inactive.
GPR161 #2 showed total luciferase, z-score -0.274; inactive.
GPR161 #3 gave total luciferase, z-score 0.0761; inactive.
After knock-down of VLDLR #1 the results were total luciferase, z-score -0.706; inactive.
VLDLR #2 showed total luciferase, z-score 0.969; inactive.
Against VLDLR #3, the entry reads total luciferase, z-score -1.23; inactive.
Against CLXN #1, the values are total luciferase, z-score 0.788; inactive.
CLXN #2 scored total luciferase, z-score 0.592; inactive.
CLXN #3 showed total luciferase, z-score -0.0175; inactive.
With knock-down of KRTAP15-1 #1, the screen gave total luciferase, z-score -0.0424; inactive.
Knock-down of KRTAP15-1 #2 gave: total luciferase, z-score 1.72; inactive.
With knock-down of KRTAP15-1 #3 the results were total luciferase, z-score -0.308; inactive.
HBB #1 showed total luciferase, z-score -2.25; inactive.
HBB #2 scored total luciferase, z-score -0.855; inactive.
Knock-down of HBB #3 came out at: total luciferase, z-score -0.839; inactive.
Knock-down of RDH8 #1 resulted in: total luciferase, z-score -0.322; inactive.
Against RDH8 #2, the values are total luciferase, z-score 0.0836; inactive.
For RDH8 #3 the deposit lists total luciferase, z-score 2.86; inactive.
Knock-down of UCK2 #1 gave: total luciferase, z-score -0.663; inactive.
UCK2 #2 showed total luciferase, z-score 1.63; inactive.
With knock-down of UCK2 #3, the screen gave total luciferase, z-score 0.442; inactive.
KLHL41 #1 gave total luciferase, z-score 1.06; inactive.
KLHL41 #2 showed total luciferase, z-score 0.365; inactive.
For KLHL41 #3, the entry reads total luciferase, z-score -0.579; inactive.
TAS1R1 #1 showed total luciferase, z-score 0.438; inactive.
Silencing of TAS1R1 #2 gave: total luciferase, z-score -0.26; inactive.
TAS1R1 #3 scored total luciferase, z-score -0.948; inactive.
For TMEM109 #1, the entry reads total luciferase, z-score 0.411; inactive.
Depletion of TMEM109 #2 came out at: total luciferase, z-score 0.157; inactive.
TMEM109 #3 gave total luciferase, z-score -0.259; inactive.

Laid out differently: results already given.
gene	reagent no.	total luciferase, z-score	call
KLHL41	3	-0.579	inactive
TAS1R1	1	0.438	inactive
TAS1R1	2	-0.26	inactive
TAS1R1	3	-0.948	inactive
